Laboratory results from patent US10422791B2, “Haptens and conjugates derived from pyocyanin, antibodies thereof, and immunochemical method for detecting infections caused by Pseudomonas aeruginosa” (priority 2013, dated 2019).

Test: Recovery studies of the ELISA As230/PC1-BSA (AE) assay in spiked sputum
Details: non-hydrolyzed, diluted 20 times with PBhST

For `Oc1cccc2nc3ccccc3nc12` [1-hydroxyphenazine], the Measured concentration (sputum spiked 0.5 nM) was 0.48 ± 0.05 nM, the Measured concentration (sputum spiked 5 nM) was 4.32 ± 0.56 nM and the Measured concentration (sputum spiked 50 nM) was 51.66 ± 2.38 nM. The Measured concentration (sputum spiked 250 nM) was 246.09 ± 43.14 nM.
